The record followed here is patent US20090221664A1, “PHARMACEUTICAL COMPOSITIONS OF MUSCARINIC RECEPTOR ANTAGONISTS” (priority 2005, published 2009).

In this data set the test system is carbachol precontracted guinea-pig isolated trachea. In words: In-vitro functional assay: relaxation of carbachol precontracted guinea-pig isolated trachea by PDE-IV inhibitors with or without MRA preincubation. As to conditions: PDE-IV inhibitor alone (vehicle preincubation); for Tension(gm) After carbachol challenge: 1 μM carbachol. The method, then: Guinea Pigs (400-600 gm) were procured and trachea was removed under anesthesia (sodium pentobarbital, 300 mg/kg i.p) and immediately kept in ice-cold Krebs Henseleit buffer. Indomethacin (10 uM) was present throughout the KH buffer to prevent the formation of bronchoactive prostanoids.
The tissue of adherent fascia was removed and cut into strips of equal size (with approx. 4-5 tracheal rings in each strip). The epithelium was removed by careful rubbing, minimizing damage to the smooth muscle. […] Opposite ends of the cut rings were tied with the help of a thread. The tissue was mounted in isolated tissue baths containing 10 ml Krebs Henseleit buffer maintained at 37° C. and bubbled with carbogen, at a basal tension of 1 gm. The buffer was changed 4-5 times for about an hour. Equilibration of the tissue was done for 1 hr for stabilization. After 1 hr, the tissue was challenged with 1 μM carbachol. This was repeated after every 2-3 washes till two similar consecutive responses were obtained. At the end of stabilization, the tissues were incubated with suboptimal dose of MRA/Vehicle for 20 minutes prior to contraction of the tissues with 1 μM carbachol. The relaxant activity of the PDE-IV inhibitor [10^−9M to 10^−4 M] on the stabilized developed tension/response was subsequently assessed. The contractile response of tissues was recorded either on Powerlab data acquisition system or on Grass polygraph (Model 7). The relaxation was expressed as percentage of maximum carbachol response and EC25 was calculated as the concentration producing 25% of the maximum relaxation to 1 μM carbachol. The percent relaxation between the treated and control tissues were compared using non-parametric unpaired t-test. A p value of <0.05 is considered to be statistically significant.

Turning to `COc1ccc(C2=NO[C@]3(CCOC3)C2)cc1OC1CCCC1` [Compound No. 124aa, (S)-3-[3-(cyclopentyloxy)-4-methoxyphenyl]-1,7-dioxa-2-azaspiro[4.4]non-2-ene], the “Tension(gm) Before carbachol challenge” value is given as 1.84 ± 0.32 gm and the “Tension(gm) After carbachol challenge” value stood at 1.99 ± 0.40 gm.

As for `O=C(Nc1c(Cl)cncc1Cl)c1ccc(OC(F)F)c(OCC2CC2)c1` [Roflumilast], the “Tension(gm) Before carbachol challenge” value is 1.38 ± 0.22 gm and the “Tension(gm) After carbachol challenge” value was 1.57 ± 0.22 gm.

For `COc1ccc(C2CNC(=O)C2)cc1OC1CCCC1` (stereo not drawn) [Rolipram], the “Tension(gm) Before carbachol challenge” value is 1.24 ± 0.04 gm and the “Tension(gm) After carbachol challenge” value turned out to be 1.16 ± 0.30 gm.
